Experimental data reported in the supplement of paper PMC4635364.
Counter-ions that a name gives are not always drawn. This is one part of the list. This data set is noisy: repeats of one test often differ as much as different tests do.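 Cells: ReNCell VM human fetal ventral-midbrain neural progenitors, differentiated mitogen-free. Blinded raters compared doublecortin-stained (early neurons) or tyrosine hydroxylase-stained (dopaminergic neurons) images with untreated wells, where 0 means no change. After repeats and both raters were averaged, compounds scoring 2 or above became hits for retesting.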

How the values were obtained:
[1] = tested on: ReNCell VM; test: neuronal differentiation score (DCX+ cell fraction vs untreated, manual image score) (score (-3 to 3)); higher = more neuronal differentiation; settings: 2 uM, 2 weeks
[2] = tested on: ReNCell VM; test: dopaminergic neuron differentiation score (TH+ cell fraction vs untreated, manual image score) (score (0 to 3)); higher = more TH+ dopaminergic neuron differentiation; settings: 2 uM, 4 weeks, BDNF 10 ng/ml + GDNF 10 ng/ml

C[C@]12CC[C@@H]3c4ccc(O)cc4C[C@@H](CCCCCCCCC[S+]([O-])CCCC(F)(F)C(F)(F)F)[C@H]3[C@@H]1CC[C@@H]2O (some centres undefined)
inactive: neuronal differentiation score ([1]; library: Spectrum) 0 | neuronal differentiation score ([1]; library: Tocriscreen) 0 | dopaminergic neuron differentiation score ([2]; library: Spectrum) 1 | dopaminergic neuron differentiation score ([2]; library: Tocriscreen) 0

COc1nc(C)nc(Cl)c1NC1=NCCN1 [Moxonidine hydrochloride]
inactive: neuronal differentiation score ([1]; library: LOPAC) 0 | neuronal differentiation score ([1]; library: Tocriscreen) 0 | dopaminergic neuron differentiation score ([2]; library: LOPAC) 0 | dopaminergic neuron differentiation score ([2]; library: Tocriscreen) 0

CC(C)(C)NCC(O)c1cc(O)cc(O)c1 (centres undefined) [Terbutaline hemisulfate]
inactive: neuronal differentiation score ([1]; library: LOPAC) 0 | neuronal differentiation score ([1]; library: Prestwick) 0 | dopaminergic neuron differentiation score ([2]; library: LOPAC) 0 | dopaminergic neuron differentiation score ([2]; library: Prestwick) 0

CC(C)(C)NC(=O)[C@H]1CC[C@H]2[C@@H]3CC[C@H]4NC(=O)C=C[C@]4(C)[C@H]3CC[C@]12C [Finasteride]
inactive: neuronal differentiation score ([1]; library: LOPAC) 1 | neuronal differentiation score ([1]; library: Prestwick) 0 | dopaminergic neuron differentiation score ([2]; library: LOPAC) 0 | dopaminergic neuron differentiation score ([2]; library: Prestwick) 0

Fetched one by one from above, two records:
CC(C)(C)NC(=O)[C@H]1CC[C@H]2[C@@H]3CC[C@H]4NC(=O)C=C[C@]4(C)[C@H]3CC[C@]12C [Finasteride]
inactive: neuronal differentiation score ([1]; library: LOPAC) 1 | neuronal differentiation score ([1]; library: Prestwick) 0 | dopaminergic neuron differentiation score ([2]; library: LOPAC) 0 | dopaminergic neuron differentiation score ([2]; library: Prestwick) 0

COc1nc(C)nc(Cl)c1NC1=NCCN1 [Moxonidine hydrochloride]
inactive: neuronal differentiation score ([1]; library: LOPAC) 0 | neuronal differentiation score ([1]; library: Tocriscreen) 0 | dopaminergic neuron differentiation score ([2]; library: LOPAC) 0 | dopaminergic neuron differentiation score ([2]; library: Tocriscreen) 0

(listing goes on)

O=C(O)COCCN1CCN(C(c2ccccc2)c2ccc(Cl)cc2)CC1 (centres undefined) [Cetirizine dihydrochloride]
inactive: neuronal differentiation score ([1]; library: Prestwick) 0 | neuronal differentiation score ([1]; library: Tocriscreen) 0 | dopaminergic neuron differentiation score ([2]; library: Prestwick) 0 | dopaminergic neuron differentiation score ([2]; library: Tocriscreen) 0

Nc1nc2ccc(Cl)cc2c2nc(-c3ccco3)nn12
inactive: neuronal differentiation score ([1]; library: LOPAC) 1 | neuronal differentiation score ([1]; library: Tocriscreen) 0 | dopaminergic neuron differentiation score ([2]; library: LOPAC) 1 | dopaminergic neuron differentiation score ([2]; library: Tocriscreen) 0

CN1Cc2c(N)cccc2C(c2ccccc2)C1 (centres undefined) [Nomifensine maleate]
inactive: neuronal differentiation score ([1]; library: LOPAC) 0 | neuronal differentiation score ([1]; library: Prestwick) 0 | dopaminergic neuron differentiation score ([2]; library: LOPAC) 0 | dopaminergic neuron differentiation score ([2]; library: Prestwick) 0

COc1cccc2c1C(=O)c1c(O)c3c(c(O)c1C2=O)C[C@@](O)(C(C)=O)C[C@@H]3O[C@H]1C[C@H](N)[C@H](O)[C@H](C)O1 [Daunorubicin hydrochloride]
inactive: neuronal differentiation score ([1]; library: Prestwick) 0 | neuronal differentiation score ([1]; library: Tocriscreen) 0 | dopaminergic neuron differentiation score ([2]; library: Prestwick) 0 | dopaminergic neuron differentiation score ([2]; library: Tocriscreen) 0

COc1c(C)c2c(c(O)c1C/C=C(\C)CCC(=O)O)C(=O)OC2 [Mycophenolic acid]
inactive: neuronal differentiation score ([1]; library: Phytochemical) 0 | neuronal differentiation score ([1]; library: Tocriscreen) 0 | dopaminergic neuron differentiation score ([2]; library: Phytochemical) 0 | dopaminergic neuron differentiation score ([2]; library: Tocriscreen) 0

CC(C(=O)O)c1ccc(-c2ccccc2)c(F)c1 (centres undefined) [Flurbiprofen]
inactive: neuronal differentiation score ([1]; library: Prestwick) 0 | neuronal differentiation score ([1]; library: Tocriscreen) 0 | dopaminergic neuron differentiation score ([2]; library: Prestwick) 0 | dopaminergic neuron differentiation score ([2]; library: Tocriscreen) 0

Oc1cc2c(cc1O)CN(C(=S)NCCc1ccc(Cl)cc1)CCC2 [Capsazepine]
inactive: neuronal differentiation score ([1]; library: LOPAC) 0 | neuronal differentiation score ([1]; library: Tocriscreen) 0 | dopaminergic neuron differentiation score ([2]; library: LOPAC) 0 | dopaminergic neuron differentiation score ([2]; library: Tocriscreen) 0

NS(=O)(=O)Cc1noc2ccccc12 [Zonisamide]
inactive: neuronal differentiation score ([1]; library: Prestwick) 0 | neuronal differentiation score ([1]; library: Tocriscreen) 0 | dopaminergic neuron differentiation score ([2]; library: Prestwick) 0 | dopaminergic neuron differentiation score ([2]; library: Tocriscreen) 0

C(=C\c1ccccc1)/CN1CCN(C(c2ccccc2)c2ccccc2)CC1 [Cinnarizine]
inactive: neuronal differentiation score ([1]; library: LOPAC) 0 | neuronal differentiation score ([1]; library: Prestwick) 0 | dopaminergic neuron differentiation score ([2]; library: LOPAC) 0 | dopaminergic neuron differentiation score ([2]; library: Prestwick) 0

NC(=O)N1c2ccccc2C=Cc2ccccc21 [Carbamazepine]
inactive: neuronal differentiation score ([1]; library: LOPAC) 0 | neuronal differentiation score ([1]; library: Prestwick) 0 | dopaminergic neuron differentiation score ([2]; library: LOPAC) 0 | dopaminergic neuron differentiation score ([2]; library: Prestwick) 0

CC(=Cc1ccc(C(=O)O)cc1)c1ccc2c(c1)C(C)(C)CCC2(C)C
inactive: neuronal differentiation score ([1]; library: LOPAC) 0 | neuronal differentiation score ([1]; library: Tocriscreen) 0 | dopaminergic neuron differentiation score ([2]; library: LOPAC) 0 | dopaminergic neuron differentiation score ([2]; library: Tocriscreen) 0

CC[C@H](NC(=O)c1c(C)c(-c2ccccc2)nc2ccccc12)c1ccccc1
inactive: neuronal differentiation score ([1]; library: LOPAC) 0 | neuronal differentiation score ([1]; library: Tocriscreen) 0 | dopaminergic neuron differentiation score ([2]; library: LOPAC) 0 | dopaminergic neuron differentiation score ([2]; library: Tocriscreen) 0

Cc1cccc(/C=C/c2ccccc2)n1
inactive: neuronal differentiation score ([1]; library: LOPAC) 0 | neuronal differentiation score ([1]; library: Tocriscreen) 0 | dopaminergic neuron differentiation score ([2]; library: LOPAC) 0 | dopaminergic neuron differentiation score ([2]; library: Tocriscreen) 0

O=C(O)C1CCCN(CCC=C(c2ccccc2)c2ccccc2)C1 (centres undefined)
inactive: neuronal differentiation score ([1]; library: LOPAC) 0 | neuronal differentiation score ([1]; library: Tocriscreen) 0 | dopaminergic neuron differentiation score ([2]; library: LOPAC) 0 | dopaminergic neuron differentiation score ([2]; library: Tocriscreen) 0

CCN1CCC[C@H]1CNC(=O)c1c(O)c(Cl)cc(Cl)c1OC [Raclopride]
inactive: neuronal differentiation score ([1]; library: Prestwick) 0 | neuronal differentiation score ([1]; library: Tocriscreen) 0 | dopaminergic neuron differentiation score ([2]; library: Prestwick) 0 | dopaminergic neuron differentiation score ([2]; library: Tocriscreen) 0

CC[C@]1(O)C[C@H]2CN(CCc3c([nH]c4ccccc34)[C@@](C(=O)OC)(c3cc4c(cc3OC)N(C=O)[C@H]3[C@@](O)(C(=O)OC)[C@H](OC(C)=O)[C@]5(CC)C=CCN6CC[C@]43[C@@H]65)C2)C1 [Vincristine sulfate]
inactive: neuronal differentiation score ([1]; library: LOPAC) 0 | neuronal differentiation score ([1]; library: Tocriscreen) 0 | dopaminergic neuron differentiation score ([2]; library: LOPAC) 0 | dopaminergic neuron differentiation score ([2]; library: Tocriscreen) 0

O=c1n(CCCN2CCN(c3cccc(Cl)c3)CC2)nc2ccccn12 [Trazodone hydrochloride]
inactive: neuronal differentiation score ([1]; library: LOPAC) 0 | neuronal differentiation score ([1]; library: Prestwick) 0 | dopaminergic neuron differentiation score ([2]; library: LOPAC) 0 | dopaminergic neuron differentiation score ([2]; library: Prestwick) 0
